Experimental data reported in PMC7124466.
Results are given in words; binding and its absence hold for the method and conditions named. Binding seen in cells or lysates may run through a third protein. Some entries that bind do so weakly or less than the wild type. One block for each substance: values may come before it.

The chains behind the UniProt entries cited, without tags or fusion partners. Residues count along the entry.
UniProt P18239: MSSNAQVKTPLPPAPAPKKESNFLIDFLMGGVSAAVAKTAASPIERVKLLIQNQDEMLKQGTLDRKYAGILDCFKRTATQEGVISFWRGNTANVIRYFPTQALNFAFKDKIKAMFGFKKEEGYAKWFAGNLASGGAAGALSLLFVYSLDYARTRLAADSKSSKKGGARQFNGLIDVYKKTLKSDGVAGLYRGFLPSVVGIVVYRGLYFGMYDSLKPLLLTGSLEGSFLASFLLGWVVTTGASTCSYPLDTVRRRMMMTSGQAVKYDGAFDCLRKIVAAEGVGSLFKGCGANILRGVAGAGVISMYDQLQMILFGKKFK
UniProt P40341: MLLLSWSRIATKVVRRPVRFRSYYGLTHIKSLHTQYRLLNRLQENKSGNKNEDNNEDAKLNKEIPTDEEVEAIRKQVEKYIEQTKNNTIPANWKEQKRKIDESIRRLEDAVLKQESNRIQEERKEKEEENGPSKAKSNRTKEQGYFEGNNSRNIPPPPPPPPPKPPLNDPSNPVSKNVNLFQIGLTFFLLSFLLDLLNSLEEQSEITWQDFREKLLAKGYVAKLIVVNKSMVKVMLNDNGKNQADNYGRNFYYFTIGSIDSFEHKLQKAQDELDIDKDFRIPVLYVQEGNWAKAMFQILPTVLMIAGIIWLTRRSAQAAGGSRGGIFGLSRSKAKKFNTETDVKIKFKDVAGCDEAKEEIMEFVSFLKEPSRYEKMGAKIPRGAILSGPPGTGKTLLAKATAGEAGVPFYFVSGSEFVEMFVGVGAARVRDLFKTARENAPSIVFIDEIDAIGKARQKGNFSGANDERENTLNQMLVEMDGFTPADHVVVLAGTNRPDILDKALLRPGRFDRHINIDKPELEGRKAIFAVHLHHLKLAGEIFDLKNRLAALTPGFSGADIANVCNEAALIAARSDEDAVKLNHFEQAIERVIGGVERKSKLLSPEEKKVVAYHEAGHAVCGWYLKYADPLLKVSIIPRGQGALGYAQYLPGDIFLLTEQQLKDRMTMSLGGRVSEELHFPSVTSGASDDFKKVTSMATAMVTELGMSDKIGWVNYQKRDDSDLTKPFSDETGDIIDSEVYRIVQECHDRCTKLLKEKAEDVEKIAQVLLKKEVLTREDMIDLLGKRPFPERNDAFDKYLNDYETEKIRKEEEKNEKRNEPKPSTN
UniProt P0CS90, residues 24-654: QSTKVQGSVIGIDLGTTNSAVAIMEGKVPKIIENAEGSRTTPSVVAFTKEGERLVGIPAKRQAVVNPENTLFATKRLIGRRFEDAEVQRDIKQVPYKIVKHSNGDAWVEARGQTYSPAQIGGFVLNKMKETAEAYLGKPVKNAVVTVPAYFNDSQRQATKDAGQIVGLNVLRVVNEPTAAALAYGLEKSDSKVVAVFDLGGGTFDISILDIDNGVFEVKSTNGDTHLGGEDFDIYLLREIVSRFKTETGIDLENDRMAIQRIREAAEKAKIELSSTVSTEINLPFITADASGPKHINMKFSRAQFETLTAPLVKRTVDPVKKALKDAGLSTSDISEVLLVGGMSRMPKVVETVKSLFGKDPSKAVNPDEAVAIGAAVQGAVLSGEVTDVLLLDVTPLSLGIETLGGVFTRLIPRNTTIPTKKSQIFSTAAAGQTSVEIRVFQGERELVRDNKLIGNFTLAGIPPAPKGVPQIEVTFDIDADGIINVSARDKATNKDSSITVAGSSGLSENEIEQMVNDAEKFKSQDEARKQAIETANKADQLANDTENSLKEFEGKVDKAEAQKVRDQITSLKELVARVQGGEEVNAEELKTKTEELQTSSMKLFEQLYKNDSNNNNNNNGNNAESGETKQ
UniProt P39925: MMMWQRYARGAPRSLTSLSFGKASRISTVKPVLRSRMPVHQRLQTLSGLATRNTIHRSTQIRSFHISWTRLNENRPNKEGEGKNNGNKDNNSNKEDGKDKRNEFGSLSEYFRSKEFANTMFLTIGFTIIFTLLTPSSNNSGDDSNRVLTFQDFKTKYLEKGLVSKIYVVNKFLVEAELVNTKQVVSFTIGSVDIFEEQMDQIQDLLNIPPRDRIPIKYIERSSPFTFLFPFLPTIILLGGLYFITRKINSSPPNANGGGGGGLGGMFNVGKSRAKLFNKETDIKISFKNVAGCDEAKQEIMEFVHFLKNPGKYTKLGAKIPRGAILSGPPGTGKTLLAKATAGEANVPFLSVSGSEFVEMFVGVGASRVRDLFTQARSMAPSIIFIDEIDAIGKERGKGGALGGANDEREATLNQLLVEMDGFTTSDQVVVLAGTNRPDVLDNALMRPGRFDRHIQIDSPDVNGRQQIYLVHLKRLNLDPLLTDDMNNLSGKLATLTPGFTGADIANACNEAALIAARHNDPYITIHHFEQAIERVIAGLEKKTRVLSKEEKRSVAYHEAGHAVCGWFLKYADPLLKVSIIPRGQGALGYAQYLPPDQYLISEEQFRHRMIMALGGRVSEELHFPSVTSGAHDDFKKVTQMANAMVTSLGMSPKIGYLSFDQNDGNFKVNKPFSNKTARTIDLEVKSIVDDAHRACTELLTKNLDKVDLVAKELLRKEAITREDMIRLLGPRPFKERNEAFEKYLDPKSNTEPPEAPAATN
UniProt P07251, residues 36-545: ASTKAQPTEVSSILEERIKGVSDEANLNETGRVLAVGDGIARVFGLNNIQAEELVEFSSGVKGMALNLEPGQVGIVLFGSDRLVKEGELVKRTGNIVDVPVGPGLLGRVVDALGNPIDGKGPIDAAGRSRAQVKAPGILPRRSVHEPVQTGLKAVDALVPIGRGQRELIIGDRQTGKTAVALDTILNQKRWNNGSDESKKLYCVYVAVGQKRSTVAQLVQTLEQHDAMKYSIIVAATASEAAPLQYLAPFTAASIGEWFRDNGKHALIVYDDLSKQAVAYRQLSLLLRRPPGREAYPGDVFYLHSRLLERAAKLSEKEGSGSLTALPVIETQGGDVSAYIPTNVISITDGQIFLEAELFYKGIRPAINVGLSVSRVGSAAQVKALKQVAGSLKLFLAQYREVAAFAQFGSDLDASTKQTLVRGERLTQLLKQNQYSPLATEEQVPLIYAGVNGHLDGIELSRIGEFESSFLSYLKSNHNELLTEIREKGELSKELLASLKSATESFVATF
UniProt P00830, residues 34-511: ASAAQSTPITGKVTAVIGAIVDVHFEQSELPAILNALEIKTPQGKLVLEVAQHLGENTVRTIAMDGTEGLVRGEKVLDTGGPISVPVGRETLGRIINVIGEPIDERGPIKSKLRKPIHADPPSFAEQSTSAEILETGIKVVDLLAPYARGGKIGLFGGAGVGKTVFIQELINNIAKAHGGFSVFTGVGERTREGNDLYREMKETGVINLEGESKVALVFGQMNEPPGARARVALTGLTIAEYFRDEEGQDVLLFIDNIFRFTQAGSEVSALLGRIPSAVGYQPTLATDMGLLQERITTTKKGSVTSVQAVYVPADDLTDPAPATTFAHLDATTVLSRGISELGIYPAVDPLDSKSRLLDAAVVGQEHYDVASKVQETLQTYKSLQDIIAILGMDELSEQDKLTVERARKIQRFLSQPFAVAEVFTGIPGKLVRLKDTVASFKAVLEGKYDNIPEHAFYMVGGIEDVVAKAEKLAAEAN
UniProt P18238: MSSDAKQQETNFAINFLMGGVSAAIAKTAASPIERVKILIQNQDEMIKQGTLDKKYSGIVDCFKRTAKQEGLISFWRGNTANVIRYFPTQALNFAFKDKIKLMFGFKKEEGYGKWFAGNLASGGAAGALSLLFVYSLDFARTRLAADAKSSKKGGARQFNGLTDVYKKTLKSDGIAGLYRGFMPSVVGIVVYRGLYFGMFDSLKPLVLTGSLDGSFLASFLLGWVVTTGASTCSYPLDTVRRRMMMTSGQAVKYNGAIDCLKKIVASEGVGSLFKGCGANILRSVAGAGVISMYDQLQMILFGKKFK
UniProt P00044: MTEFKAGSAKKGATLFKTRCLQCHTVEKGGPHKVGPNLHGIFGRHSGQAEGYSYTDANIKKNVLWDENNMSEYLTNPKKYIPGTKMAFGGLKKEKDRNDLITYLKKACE

Tests used:
Experiment in all cases: cross-linking; intact purified yeast mitochondria (5 mg/ml, isotonic buffer: 250 mM sucrose, 1 mM EDTA, 10 mM MOPS-KOH, pH 7.2) crosslinked in organello with 2 mM CBDPS-H8/D8, 21 °C 10 min then on ice 110 min; Lys-Lys inter-protein crosslinked peptides enriched (SCX, avidin) and identified by LC-MS/MS, FDR 2%
[1] = biological target: PET9 (yeast (endogenous in mitochondria of strain YPH499)) (UniProt P18239)
[2] = biological target: YTA12 (yeast (endogenous in mitochondria of strain YPH499)) (UniProt P40341)
[3] = biological target: SSC1 (yeast (endogenous in mitochondria of strain YPH499)) (UniProt P0CS90)
[4] = biological target: T1, ATP5 (yeast (endogenous in mitochondria of strain YPH499)) (UniProt P09457)
T1 sequence: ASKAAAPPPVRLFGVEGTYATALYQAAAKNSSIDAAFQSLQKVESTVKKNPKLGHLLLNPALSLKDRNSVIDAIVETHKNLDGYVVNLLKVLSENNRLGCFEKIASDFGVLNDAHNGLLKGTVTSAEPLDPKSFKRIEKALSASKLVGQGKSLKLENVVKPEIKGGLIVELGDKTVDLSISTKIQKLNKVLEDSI

[5] = biological target: T2, ATP4 (yeast (endogenous in mitochondria of strain YPH499)) (UniProt P05626)
T2 sequence: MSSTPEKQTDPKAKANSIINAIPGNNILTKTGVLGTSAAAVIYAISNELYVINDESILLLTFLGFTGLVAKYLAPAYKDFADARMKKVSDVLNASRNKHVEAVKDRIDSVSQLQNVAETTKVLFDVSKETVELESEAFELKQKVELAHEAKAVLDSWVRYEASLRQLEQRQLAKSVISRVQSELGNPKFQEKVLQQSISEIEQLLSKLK

[6] = biological target: T3, OM45 (yeast (endogenous in mitochondria of strain YPH499)) (UniProt P16547)
T3 sequence: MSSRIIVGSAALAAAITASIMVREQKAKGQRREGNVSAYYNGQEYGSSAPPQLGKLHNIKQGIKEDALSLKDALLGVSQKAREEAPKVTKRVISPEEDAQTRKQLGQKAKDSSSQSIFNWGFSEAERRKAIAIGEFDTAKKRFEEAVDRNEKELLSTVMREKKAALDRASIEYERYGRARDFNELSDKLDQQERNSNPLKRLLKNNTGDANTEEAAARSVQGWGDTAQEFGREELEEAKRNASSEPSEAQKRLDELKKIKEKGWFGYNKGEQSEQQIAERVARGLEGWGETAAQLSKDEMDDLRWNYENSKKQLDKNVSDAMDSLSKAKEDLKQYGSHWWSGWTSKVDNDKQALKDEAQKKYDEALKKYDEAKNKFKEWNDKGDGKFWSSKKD

Substance: AFG3 (from UniProt P39925 1-761)
- binding [2]: binds

Substance: ATP1 (from UniProt P07251 36-545)
- binding [3]: binds

Substance: ATP2 (from UniProt P00830 34-511)
- binding [4]: binds
- binding [5]: binds

Second part, the substance after the results:

- binding [1]: binds
Substance: AAC3 (from UniProt P18238 1-307)

- binding [6]: binds
Substance: CYC1 (from UniProt P00044 1-109)
